Measured values published in paper PMC3458939.

Sequences of proteins named here, by UniProt entry; tags and fusion partners are left off. A change or cut given only in a name is not applied to a line headed by its entry.
UniProt O82388: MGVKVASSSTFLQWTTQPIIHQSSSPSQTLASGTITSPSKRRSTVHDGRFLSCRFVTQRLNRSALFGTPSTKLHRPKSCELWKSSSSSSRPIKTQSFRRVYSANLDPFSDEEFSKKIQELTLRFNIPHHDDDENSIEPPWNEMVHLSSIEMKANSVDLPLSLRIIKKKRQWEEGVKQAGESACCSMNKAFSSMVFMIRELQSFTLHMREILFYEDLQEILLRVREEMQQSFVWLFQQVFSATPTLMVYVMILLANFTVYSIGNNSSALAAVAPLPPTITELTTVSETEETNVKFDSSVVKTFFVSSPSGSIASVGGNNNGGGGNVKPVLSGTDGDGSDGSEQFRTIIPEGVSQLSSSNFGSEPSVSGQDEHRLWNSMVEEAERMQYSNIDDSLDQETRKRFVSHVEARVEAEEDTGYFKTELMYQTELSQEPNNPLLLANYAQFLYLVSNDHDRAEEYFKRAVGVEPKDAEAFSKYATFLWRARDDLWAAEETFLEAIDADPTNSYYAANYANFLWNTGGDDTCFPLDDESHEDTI

Molecular target: CPK3-eGFP (Arabidopsis thaliana) (UniProt Q42479)
Experiment: FRET or BRET; FRET-FLIM in Nicotiana benthamiana epidermal leaf cells; donor CPK3-eGFP, acceptor N-terminal mRFP or C-terminal mCherry fusion; average GFP lifetime in a cytoplasmic sector (nucleus for HMGB5); at least five cells per sample

binding: binds
Substance: mRFP-AT2G29670 (from UniProt O82388)

No constants are given. Whether binding was seen depends on the method and setting. In cells and extracts the contact can be indirect. Binding can be weak; no strength is given.
